Reference: article PMC11721573
Read-outs that look alike come from different tables or passages of the source. No constants are given. Whether binding was seen depends on the method and setting. In cells and extracts the contact can be indirect. Some entries that bind do so weakly or less than the wild type. Values belong to the molecule of their own block, whether it stands above or below them.

By UniProt entry, the sequences of proteins in these tests, tags left out. Where a name states a change or a piece, a line headed by the entry shows the natural chain unless it says otherwise.
UniProt P09022: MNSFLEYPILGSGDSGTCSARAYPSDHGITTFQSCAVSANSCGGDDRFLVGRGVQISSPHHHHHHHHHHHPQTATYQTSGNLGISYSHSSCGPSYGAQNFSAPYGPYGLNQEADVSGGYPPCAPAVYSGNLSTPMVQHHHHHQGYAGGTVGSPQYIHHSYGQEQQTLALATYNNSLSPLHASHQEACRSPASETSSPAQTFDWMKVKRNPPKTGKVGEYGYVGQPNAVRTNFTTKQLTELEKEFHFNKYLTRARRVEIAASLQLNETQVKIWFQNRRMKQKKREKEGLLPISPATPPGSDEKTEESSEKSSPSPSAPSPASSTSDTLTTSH
UniProt P31245: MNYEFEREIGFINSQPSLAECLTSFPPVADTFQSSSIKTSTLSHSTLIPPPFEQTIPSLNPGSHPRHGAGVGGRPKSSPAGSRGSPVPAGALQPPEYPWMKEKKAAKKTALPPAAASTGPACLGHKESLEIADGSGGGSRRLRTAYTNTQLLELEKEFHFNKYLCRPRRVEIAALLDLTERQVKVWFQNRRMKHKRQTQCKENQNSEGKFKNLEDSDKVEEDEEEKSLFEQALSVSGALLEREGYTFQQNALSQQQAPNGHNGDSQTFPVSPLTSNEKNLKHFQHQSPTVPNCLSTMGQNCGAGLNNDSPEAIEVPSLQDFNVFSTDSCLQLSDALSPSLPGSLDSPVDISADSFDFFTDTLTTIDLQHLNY
UniProt O60479: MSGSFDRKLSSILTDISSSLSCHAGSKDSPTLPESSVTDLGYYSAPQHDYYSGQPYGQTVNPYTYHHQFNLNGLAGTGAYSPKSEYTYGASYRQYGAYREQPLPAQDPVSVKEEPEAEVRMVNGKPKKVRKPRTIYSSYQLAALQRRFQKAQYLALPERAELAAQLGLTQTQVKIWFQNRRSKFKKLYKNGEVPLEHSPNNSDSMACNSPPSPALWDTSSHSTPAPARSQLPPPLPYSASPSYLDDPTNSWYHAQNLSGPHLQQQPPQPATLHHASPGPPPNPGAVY

How the values were obtained:
HOXA1 (mouse) [1] = molecular target: HOXA1 (mouse) (UniProt P09022); experiment: split reporter; BiFC with VN173 and VC155 moieties of Venus in transfected COS-7 cells, fixed 24 h after transfection, confocal microscopy; positive when the signal was at least 3 times that of the 3 control conditions
HOXA2 (mouse) [2] = molecular target: HOXA2 (mouse) (UniProt P31245); experiment: as above
HOXA1 (mouse) [3] = molecular target: HOXA1 (mouse) (UniProt P09022); experiment: pull-down; glutathione coprecipitation: HEK293T cells co-transfected with plasmids for a GST-tagged and a FLAG-tagged protein; lysis in IPLS buffer (20 mM Tris-HCl pH 7.5, 120 mM NaCl, 0.5 mM EDTA, 0.5% NP40, 10% glycerol); overnight on glutathione-sepharose beads at 4 °C; Western blot with anti-FLAG and anti-GST
HOXA1^E243A (mouse) [4] = molecular target: HOXA1^E243A (mouse) (UniProt P09022); experiment: as above
HOXA1^E243A (mouse) [5] = molecular target: HOXA1^E243A (mouse) (UniProt P09022); experiment: split reporter; BiFC with VN173 and VC155 moieties of Venus in transfected COS-7 cells, fixed 24 h after transfection, confocal microscopy; positive when the signal was at least 3 times that of the 3 control conditions
HOXA1^E243G (mouse) = HOXA1^E243G (mouse) (UniProt P09022); experiment: as above
HOXA1 (mouse) [6] = molecular target: HOXA1 (mouse) (UniProt P09022); experiment: as above; remark: listed apart in the source
HOXA2 (mouse) [7] = molecular target: HOXA2 (mouse) (UniProt P31245); experiment: as above; remark: listed apart in the source

binding (HOXA1 (mouse) [1]): binds
binding (HOXA2 (mouse) [2]): binds
Molecule: DLX3 (from UniProt O60479 1-287)

binding (HOXA1 (mouse) [3]): binds
binding (HOXA1 (mouse) [1]): binds
Molecule: HOXA1 (from UniProt P09022 1-331)

binding (HOXA1 (mouse) [3]): binds
binding (HOXA1^E243A (mouse) [4]): binds
binding (HOXA1 (mouse) [1]): binds
binding (HOXA1^E243A (mouse) [5]): binds
Molecule: HOXA1^E243A (from UniProt P09022 1-331)

binding (HOXA1^E243G (mouse)): binds
binding (HOXA1 (mouse) [1]): binds
Molecule: HOXA1^E243G (from UniProt P09022 1-331)

binding (HOXA1 (mouse) [3]): binds
binding (HOXA1 (mouse) [1]): binds
binding (HOXA2 (mouse) [2]): binds
Molecule: HOXA2 (from UniProt P31245 1-372)

binding (HOXA1 (mouse) [6]): binds
binding (HOXA2 (mouse) [7]): binds
B1: PBX1A (protein, UniProt P40424-1 1-430)
chain: MDEQPRLMHSHAGVGMAGHPGLSQHLQDGAGGTEGEGGRKQDIGDILQQIMTITDQSLDEAQARKHALNCHRMKPALFNVLCEIKEKTVLSIRGAQEEEPTDPQLMRLDNMLLAEGVAGPEKGGGSAAAAAAAAASGGAGSDNSVEHSDYRAKLSQIRQIYHTELEKYEQACNEFTTHVMNLLREQSRTRPISPKEIERMVSIIHRKFSSIQMQLKQSTCEAVMILRSRFLDARRKRRNFNKQATEILNEYFYSHLSNPYPSEEAKEELAKKCGITVSQVSNWFGNKRIRYKKNIGKFQEEANIYAAKTAVTATNVSAHGSQANSPSTPNSAGSSSSFNMSNSGDLFMSVQSLNGDSYQGAQVGANVQSQVDTLRHVISQTGGYSDGLAASQMYSPQGISANGGWQDATTPSSVTSPTEGPGSVHSDTSN
